From publication PMC10194889

The chains behind the UniProt entries cited, without tags or fusion partners. Residues count along the entry.
UniProt P21860, residues 20-1342: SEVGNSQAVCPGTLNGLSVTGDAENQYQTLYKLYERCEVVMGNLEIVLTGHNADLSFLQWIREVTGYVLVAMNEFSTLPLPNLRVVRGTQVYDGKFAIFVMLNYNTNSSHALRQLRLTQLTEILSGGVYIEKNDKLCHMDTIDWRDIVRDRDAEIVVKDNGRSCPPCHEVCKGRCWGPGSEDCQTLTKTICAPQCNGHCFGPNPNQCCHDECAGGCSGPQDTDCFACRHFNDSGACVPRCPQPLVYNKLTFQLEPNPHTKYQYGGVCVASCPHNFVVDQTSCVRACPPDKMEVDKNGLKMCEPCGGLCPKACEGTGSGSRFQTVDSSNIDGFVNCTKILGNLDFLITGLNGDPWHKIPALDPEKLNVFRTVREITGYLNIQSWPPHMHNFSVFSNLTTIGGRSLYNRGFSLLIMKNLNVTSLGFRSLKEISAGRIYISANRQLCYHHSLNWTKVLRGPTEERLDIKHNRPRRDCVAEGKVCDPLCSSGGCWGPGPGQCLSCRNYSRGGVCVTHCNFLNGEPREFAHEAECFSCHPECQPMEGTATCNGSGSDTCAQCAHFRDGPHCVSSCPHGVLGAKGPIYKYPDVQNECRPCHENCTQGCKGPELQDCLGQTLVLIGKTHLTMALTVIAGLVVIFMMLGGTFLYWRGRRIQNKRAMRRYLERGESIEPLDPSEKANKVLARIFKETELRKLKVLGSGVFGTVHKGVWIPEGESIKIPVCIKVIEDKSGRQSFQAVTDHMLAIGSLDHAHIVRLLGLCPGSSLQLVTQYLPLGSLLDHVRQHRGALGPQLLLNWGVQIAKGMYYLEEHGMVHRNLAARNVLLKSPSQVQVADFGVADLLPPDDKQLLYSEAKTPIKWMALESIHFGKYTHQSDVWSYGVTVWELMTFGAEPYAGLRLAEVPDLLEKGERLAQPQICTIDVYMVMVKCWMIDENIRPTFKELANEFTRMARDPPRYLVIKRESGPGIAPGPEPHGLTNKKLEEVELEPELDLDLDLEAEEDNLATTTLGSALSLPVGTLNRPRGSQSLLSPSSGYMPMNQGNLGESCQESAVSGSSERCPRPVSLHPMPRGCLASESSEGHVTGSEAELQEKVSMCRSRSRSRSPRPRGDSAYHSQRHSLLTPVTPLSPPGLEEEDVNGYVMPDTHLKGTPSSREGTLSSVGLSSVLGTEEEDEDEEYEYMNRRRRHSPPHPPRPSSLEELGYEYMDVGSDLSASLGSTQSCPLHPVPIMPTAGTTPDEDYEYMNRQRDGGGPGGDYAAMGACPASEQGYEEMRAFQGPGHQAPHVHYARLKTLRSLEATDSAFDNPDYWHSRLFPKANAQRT
UniProt P35579: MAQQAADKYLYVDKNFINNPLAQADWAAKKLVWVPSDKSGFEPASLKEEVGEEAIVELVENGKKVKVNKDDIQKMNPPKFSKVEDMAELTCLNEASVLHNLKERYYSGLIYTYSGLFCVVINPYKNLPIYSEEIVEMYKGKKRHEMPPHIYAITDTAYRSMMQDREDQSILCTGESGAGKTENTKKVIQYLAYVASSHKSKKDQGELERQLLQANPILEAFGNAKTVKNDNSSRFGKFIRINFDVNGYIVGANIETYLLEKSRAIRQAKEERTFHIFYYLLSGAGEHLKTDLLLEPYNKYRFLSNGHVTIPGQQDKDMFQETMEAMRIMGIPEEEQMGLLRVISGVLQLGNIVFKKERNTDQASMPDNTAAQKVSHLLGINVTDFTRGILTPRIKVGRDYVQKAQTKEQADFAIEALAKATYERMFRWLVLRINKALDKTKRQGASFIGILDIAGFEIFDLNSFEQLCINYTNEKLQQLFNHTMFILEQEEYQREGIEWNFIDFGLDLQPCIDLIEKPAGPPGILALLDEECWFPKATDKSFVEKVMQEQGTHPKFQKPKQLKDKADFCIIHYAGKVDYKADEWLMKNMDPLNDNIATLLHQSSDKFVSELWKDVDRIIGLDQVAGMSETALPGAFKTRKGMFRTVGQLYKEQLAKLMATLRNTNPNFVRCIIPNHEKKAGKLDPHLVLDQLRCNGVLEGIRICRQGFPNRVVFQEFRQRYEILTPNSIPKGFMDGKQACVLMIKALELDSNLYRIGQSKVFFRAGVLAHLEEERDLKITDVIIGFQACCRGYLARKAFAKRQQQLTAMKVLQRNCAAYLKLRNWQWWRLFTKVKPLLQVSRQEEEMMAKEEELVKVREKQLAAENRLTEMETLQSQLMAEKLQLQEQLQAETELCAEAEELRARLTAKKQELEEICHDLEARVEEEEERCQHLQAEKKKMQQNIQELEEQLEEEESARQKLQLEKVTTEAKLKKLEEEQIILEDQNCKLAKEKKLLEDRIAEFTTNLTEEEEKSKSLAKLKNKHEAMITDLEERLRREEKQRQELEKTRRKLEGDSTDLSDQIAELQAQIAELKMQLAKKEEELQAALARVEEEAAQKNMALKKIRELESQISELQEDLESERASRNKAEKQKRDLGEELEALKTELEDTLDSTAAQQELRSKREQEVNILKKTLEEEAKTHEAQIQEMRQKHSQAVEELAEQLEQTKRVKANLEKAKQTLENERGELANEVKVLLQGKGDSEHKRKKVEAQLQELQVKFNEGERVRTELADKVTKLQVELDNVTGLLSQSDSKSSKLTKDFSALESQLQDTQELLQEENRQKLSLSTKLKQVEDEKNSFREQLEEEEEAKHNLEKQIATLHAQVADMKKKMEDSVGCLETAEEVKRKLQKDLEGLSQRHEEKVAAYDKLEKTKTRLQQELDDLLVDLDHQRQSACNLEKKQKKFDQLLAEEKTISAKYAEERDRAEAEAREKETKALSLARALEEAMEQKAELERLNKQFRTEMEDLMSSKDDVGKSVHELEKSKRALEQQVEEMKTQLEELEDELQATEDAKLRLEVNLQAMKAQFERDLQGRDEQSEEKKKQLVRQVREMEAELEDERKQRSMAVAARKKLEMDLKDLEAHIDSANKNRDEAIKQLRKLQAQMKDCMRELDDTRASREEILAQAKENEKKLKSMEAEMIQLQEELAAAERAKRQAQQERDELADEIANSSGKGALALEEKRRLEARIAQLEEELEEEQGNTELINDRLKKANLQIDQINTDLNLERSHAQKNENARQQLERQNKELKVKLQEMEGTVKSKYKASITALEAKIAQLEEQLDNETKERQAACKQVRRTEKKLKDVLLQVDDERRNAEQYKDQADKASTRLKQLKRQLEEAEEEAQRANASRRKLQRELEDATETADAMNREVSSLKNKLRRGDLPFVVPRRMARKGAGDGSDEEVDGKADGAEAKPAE

Target: HER3 (human (endogenous in BT474 and MDA-MB-453)) (UniProt P21860)
Test: affinity purification with mass spectrometry; BT474 cells treated with DMSO or 500 nM neratinib for 24 h; HER3 immunoprecipitated from lysate; silver-stained gel bands excised, digested with trypsin, MALDI TOF-TOF, MASCOT search

Substance: non-muscle myosin IIA (from UniProt P35579 1-1960)
- binding: binds

No constants are given. Whether binding was seen depends on the method and setting. Binding seen in cells or lysates may run through a third protein. Here binding means that the protein was enriched with, or labelled near, the bait; the list need not be complete.
